# Experimental data as given in the supplement of paper PMC6411743.
# Protein sequences, listed by entry. Tags and fused reporters are not part of them. Lines headed by an entry give the natural chain unless they say otherwise; changes in a name come on top.
# UniProt Q9UH62: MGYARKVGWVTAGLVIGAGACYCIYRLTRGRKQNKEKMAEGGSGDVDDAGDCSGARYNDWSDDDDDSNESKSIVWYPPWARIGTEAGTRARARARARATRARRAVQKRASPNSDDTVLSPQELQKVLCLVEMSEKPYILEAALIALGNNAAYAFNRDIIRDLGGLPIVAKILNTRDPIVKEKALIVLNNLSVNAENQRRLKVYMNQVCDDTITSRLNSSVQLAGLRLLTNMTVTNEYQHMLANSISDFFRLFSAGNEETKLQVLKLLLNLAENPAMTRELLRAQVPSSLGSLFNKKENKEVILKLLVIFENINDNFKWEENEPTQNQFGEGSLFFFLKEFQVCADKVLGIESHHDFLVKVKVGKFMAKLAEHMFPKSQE
# UniProt Q9UER7, whole entry: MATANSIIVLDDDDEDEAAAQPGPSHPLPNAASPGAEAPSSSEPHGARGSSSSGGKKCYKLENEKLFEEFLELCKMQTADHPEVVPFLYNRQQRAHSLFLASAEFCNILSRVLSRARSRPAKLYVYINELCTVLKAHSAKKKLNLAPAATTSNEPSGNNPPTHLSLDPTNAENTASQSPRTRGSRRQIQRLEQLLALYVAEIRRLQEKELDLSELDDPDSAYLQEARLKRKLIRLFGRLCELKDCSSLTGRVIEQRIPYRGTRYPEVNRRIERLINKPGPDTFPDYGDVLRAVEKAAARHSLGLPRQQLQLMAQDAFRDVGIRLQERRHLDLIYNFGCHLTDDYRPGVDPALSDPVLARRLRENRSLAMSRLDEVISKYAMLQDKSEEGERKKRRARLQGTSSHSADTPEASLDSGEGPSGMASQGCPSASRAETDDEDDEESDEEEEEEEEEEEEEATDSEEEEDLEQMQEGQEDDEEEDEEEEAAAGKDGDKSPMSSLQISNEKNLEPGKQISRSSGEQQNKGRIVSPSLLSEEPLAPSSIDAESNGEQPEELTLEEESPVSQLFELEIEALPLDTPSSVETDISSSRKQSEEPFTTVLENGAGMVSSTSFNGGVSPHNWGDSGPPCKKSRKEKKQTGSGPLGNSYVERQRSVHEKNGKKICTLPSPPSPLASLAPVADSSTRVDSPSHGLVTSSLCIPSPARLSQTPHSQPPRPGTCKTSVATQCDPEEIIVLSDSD
# UniProt Q9UKV8, whole entry: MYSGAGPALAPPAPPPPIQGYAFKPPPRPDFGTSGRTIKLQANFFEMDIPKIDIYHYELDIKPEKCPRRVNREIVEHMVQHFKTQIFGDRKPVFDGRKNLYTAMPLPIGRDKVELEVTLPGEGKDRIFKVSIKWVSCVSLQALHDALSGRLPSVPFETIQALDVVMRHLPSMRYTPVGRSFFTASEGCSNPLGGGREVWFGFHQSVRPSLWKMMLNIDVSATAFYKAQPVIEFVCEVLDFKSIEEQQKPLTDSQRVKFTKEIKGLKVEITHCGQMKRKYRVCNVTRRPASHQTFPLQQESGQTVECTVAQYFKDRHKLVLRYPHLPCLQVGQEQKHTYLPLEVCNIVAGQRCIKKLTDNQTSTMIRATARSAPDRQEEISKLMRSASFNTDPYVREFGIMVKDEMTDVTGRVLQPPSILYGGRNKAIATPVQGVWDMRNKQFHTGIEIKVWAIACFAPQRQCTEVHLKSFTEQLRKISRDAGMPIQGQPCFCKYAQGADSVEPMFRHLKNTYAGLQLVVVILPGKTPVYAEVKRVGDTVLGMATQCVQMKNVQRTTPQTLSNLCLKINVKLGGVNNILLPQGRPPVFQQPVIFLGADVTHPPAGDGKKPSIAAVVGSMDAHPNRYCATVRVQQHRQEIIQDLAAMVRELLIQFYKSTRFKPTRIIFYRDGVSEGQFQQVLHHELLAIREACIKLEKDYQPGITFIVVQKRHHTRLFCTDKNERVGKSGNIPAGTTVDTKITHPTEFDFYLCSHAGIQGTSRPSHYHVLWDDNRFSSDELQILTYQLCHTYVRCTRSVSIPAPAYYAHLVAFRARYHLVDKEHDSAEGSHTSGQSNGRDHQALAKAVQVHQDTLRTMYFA
# UniProt Q9ULP9: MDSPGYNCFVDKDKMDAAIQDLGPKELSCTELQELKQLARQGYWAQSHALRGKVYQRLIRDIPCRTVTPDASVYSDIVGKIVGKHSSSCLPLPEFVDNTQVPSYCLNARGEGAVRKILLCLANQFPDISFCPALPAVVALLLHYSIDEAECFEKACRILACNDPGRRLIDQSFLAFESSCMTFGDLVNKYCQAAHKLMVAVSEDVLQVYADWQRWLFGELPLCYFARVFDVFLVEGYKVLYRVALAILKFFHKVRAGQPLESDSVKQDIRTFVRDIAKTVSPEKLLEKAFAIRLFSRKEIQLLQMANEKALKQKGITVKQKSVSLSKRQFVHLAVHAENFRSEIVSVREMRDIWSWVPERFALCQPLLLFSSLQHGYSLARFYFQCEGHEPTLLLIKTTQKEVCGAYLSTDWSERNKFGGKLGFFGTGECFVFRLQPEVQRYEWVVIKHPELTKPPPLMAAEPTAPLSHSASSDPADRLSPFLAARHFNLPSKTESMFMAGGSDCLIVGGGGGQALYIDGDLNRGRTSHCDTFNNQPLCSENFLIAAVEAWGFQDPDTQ
# UniProt Q9P2I0: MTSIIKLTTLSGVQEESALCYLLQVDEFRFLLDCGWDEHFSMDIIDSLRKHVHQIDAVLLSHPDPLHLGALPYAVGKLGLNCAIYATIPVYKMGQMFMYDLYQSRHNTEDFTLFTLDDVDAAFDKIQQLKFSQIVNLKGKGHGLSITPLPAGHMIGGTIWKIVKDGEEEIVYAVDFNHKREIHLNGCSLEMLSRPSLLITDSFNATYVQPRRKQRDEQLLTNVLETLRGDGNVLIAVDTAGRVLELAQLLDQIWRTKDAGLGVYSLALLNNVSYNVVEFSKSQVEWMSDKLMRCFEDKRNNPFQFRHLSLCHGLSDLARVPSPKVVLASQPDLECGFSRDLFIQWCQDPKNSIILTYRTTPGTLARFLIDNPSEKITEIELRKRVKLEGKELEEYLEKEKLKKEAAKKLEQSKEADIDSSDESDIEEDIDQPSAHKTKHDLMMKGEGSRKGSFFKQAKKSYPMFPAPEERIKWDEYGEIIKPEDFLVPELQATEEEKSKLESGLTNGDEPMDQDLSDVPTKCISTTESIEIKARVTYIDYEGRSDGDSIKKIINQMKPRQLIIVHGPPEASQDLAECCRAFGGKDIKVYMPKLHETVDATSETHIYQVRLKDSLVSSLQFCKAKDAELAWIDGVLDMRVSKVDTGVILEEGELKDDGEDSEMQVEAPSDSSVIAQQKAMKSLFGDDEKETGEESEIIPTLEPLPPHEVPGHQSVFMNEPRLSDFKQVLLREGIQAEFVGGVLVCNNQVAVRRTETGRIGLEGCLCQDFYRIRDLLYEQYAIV
# UniProt Q9ULW3: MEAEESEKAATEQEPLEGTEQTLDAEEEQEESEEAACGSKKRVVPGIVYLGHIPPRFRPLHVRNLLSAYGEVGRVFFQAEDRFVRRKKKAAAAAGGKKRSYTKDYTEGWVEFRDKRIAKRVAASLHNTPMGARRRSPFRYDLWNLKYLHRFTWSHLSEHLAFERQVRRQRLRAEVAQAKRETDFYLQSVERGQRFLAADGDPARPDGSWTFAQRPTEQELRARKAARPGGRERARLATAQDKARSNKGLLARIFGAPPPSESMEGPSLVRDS
# UniProt Q9UJK0: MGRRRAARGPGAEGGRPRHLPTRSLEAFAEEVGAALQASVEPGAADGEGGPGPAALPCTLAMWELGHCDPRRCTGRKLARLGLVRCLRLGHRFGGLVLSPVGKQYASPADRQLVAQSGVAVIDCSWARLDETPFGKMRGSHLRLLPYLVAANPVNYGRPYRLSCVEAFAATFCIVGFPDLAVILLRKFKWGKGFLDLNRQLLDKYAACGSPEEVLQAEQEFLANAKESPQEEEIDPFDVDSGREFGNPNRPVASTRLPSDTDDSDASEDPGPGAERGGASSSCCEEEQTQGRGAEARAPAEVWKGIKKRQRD
# UniProt Q9UHA4, whole entry: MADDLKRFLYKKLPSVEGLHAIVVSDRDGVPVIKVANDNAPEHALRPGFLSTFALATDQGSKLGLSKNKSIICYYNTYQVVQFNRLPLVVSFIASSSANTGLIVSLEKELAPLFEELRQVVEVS
# UniProt Q9UBS8: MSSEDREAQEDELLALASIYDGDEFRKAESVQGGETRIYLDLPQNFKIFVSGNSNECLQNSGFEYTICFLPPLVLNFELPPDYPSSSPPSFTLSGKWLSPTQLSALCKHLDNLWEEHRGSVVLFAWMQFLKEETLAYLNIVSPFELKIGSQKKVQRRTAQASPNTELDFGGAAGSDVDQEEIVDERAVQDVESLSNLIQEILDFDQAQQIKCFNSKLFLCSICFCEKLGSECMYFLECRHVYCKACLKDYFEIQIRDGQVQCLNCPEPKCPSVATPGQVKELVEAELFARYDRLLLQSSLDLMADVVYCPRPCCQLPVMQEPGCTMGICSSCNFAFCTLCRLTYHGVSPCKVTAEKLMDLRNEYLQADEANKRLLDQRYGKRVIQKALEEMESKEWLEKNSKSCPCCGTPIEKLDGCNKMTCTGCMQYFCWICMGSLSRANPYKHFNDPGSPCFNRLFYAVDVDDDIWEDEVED
# UniProt Q9UH99: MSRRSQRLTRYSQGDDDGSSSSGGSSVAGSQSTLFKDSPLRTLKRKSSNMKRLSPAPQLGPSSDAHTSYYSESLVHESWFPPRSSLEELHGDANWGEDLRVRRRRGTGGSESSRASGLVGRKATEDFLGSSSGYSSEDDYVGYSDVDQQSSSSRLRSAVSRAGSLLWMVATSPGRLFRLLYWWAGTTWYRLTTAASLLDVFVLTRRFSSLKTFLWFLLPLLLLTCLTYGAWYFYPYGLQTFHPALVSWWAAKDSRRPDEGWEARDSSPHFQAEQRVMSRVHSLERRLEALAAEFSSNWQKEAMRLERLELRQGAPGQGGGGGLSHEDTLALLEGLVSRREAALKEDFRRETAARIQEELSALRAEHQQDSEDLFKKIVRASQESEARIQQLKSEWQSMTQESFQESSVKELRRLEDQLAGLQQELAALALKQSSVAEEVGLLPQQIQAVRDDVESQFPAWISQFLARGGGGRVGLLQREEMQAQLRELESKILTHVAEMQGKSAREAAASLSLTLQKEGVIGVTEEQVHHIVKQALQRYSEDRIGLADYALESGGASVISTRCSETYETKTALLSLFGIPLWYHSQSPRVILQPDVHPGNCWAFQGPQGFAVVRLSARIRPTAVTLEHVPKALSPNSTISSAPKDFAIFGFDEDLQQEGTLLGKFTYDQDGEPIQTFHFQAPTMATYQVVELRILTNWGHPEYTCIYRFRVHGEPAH
# UniProt Q9Y289: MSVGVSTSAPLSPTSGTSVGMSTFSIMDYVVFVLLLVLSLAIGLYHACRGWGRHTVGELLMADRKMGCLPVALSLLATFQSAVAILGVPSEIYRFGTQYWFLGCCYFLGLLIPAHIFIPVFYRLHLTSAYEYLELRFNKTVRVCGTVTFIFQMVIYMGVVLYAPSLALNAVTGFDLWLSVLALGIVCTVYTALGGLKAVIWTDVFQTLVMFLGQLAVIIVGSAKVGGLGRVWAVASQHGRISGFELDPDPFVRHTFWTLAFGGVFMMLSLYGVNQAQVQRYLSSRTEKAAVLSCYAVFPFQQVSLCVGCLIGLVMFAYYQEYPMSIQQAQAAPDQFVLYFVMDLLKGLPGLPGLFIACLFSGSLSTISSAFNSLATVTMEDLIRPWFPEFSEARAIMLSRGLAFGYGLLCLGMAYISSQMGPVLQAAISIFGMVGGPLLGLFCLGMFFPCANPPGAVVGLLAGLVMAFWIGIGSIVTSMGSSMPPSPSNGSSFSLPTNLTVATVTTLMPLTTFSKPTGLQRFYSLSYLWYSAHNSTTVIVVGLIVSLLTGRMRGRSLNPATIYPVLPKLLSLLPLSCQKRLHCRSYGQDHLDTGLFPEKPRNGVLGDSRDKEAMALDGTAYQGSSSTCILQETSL
# UniProt Q9Y248: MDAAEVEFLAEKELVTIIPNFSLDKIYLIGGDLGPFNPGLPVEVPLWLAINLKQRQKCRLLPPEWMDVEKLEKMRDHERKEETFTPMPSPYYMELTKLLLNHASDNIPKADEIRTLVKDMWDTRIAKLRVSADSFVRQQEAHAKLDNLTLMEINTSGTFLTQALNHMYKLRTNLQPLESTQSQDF
# UniProt Q9UBM7: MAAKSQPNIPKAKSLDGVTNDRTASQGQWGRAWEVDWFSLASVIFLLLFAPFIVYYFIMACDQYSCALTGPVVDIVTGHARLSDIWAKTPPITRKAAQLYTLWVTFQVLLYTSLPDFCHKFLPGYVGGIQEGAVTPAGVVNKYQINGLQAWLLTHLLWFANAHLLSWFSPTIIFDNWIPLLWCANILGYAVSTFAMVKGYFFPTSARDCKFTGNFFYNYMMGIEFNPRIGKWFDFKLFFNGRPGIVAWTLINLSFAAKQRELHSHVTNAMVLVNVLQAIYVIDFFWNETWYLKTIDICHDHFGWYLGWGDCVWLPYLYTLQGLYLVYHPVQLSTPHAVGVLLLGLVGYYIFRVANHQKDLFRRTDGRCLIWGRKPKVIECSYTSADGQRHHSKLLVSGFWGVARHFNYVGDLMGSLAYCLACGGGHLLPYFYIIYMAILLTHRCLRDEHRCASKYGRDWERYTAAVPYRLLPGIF
# ± gives the standard deviation of the averaged measurements. Only a part is listed here, and it is no random draw.
# Compound: Nc1ncnc2c1ncn2[C@@H]1O[C@H](COP(=O)(O)OP(=O)(O)OP(=O)(O)O)[C@@H](O)[C@H]1O [adenosine triphosphate]
# Assay: NP40-soluble protein abundance relative to vehicle (solubility fold change) (ratio); higher = more soluble protein in presence of ATP
# Outline: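 Eight concentrations, 0.1 to 10 mM, were tested on Jurkat crude lysate for 10 min at room temperature and then 3 min at 37 °C, in three independent experiments. The lysate was solubilised with 0.8% NP40 and benzonase, ultracentrifuged, and the supernatant TMT-labelled for LC-MS/MS. Each value is the fold change against the detergent-processed vehicle in its own replicate, from vsn-normalised intensities.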
target,measurement,setting,value
ARMCX3 (UniProt Q9UH62),NP40-soluble protein abundance,concentration: 1mM,0.946 ± 0.034
same,NP40-soluble protein abundance,concentration: 2mM,0.954 ± 0.066
same,NP40-soluble protein abundance,concentration: 4mM,0.956 ± 0.032
same,NP40-soluble protein abundance,concentration: 6mM,0.895 ± 0.09
same,NP40-soluble protein abundance,concentration: 8mM,0.9 ± 0.064
same,NP40-soluble protein abundance,concentration: 10mM,0.992 ± 0.01
UniProt Q9UER7 and related entries,NP40-soluble protein abundance,concentration: 1mM,0.915 ± 0.07
same,NP40-soluble protein abundance,concentration: 2mM,0.914 ± 0.052
same,NP40-soluble protein abundance,concentration: 4mM,0.912 ± 0.056
same,NP40-soluble protein abundance,concentration: 6mM,0.983 ± 0.077
same,NP40-soluble protein abundance,concentration: 8mM,0.924 ± 0.053
same,NP40-soluble protein abundance,concentration: 10mM,0.933 ± 0.06
CHD7 (UniProt Q9P2D1),NP40-soluble protein abundance,concentration: 1mM,1.03 ± 0.088
same,NP40-soluble protein abundance,concentration: 2mM,1.02 ± 0.067
same,NP40-soluble protein abundance,concentration: 4mM,1.04 ± 0.037
same,NP40-soluble protein abundance,concentration: 6mM,1.04 ± 0.086
same,NP40-soluble protein abundance,concentration: 8mM,1.01 ± 0.054
same,NP40-soluble protein abundance,concentration: 10mM,1.02 ± 0.059
UniProt Q9UKV8,NP40-soluble protein abundance,concentration: 1mM,1.09 ± 0.022
same,NP40-soluble protein abundance,concentration: 2mM,1.09 ± 0.019
same,NP40-soluble protein abundance,concentration: 4mM,1.11 ± 0.034
same,NP40-soluble protein abundance,concentration: 6mM,1.06 ± 0.032
same,NP40-soluble protein abundance,concentration: 8mM,1.12 ± 0.026
same,NP40-soluble protein abundance,concentration: 10mM,1.15 ± 0.016
UniProt Q9ULP9 and related entries,NP40-soluble protein abundance,concentration: 1mM,0.991 ± 0.022
same,NP40-soluble protein abundance,concentration: 2mM,1.03 ± 0.054
same,NP40-soluble protein abundance,concentration: 4mM,1.01 ± 0.064
same,NP40-soluble protein abundance,concentration: 6mM,0.938 ± 0.075
same,NP40-soluble protein abundance,concentration: 8mM,0.9599 ± 0.0092
same,NP40-soluble protein abundance,concentration: 10mM,1 ± 0.049
CPSF2 (UniProt Q9P2I0),NP40-soluble protein abundance,concentration: 1mM,1.08 ± 0.03
same,NP40-soluble protein abundance,concentration: 2mM,1.141 ± 0.011
same,NP40-soluble protein abundance,concentration: 4mM,1.19 ± 0.034
same,NP40-soluble protein abundance,concentration: 6mM,1.24 ± 0.014
same,NP40-soluble protein abundance,concentration: 8mM,1.27 ± 0.029
same,NP40-soluble protein abundance,concentration: 10mM,1.292 ± 0.011
UniProt Q9UNA1 and related entries,NP40-soluble protein abundance,concentration: 1mM,1 ± 0.049
same,NP40-soluble protein abundance,concentration: 2mM,0.991 ± 0.033
same,NP40-soluble protein abundance,concentration: 4mM,1.02 ± 0.06
same,NP40-soluble protein abundance,concentration: 6mM,1.01 ± 0.076
same,NP40-soluble protein abundance,concentration: 8mM,1 ± 0.033
same,NP40-soluble protein abundance,concentration: 10mM,1.03 ± 0.06
ABT1 (UniProt Q9ULW3),NP40-soluble protein abundance,concentration: 1mM,0.997 ± 0.043
same,NP40-soluble protein abundance,concentration: 2mM,1.01 ± 0.095
same,NP40-soluble protein abundance,concentration: 4mM,1.02 ± 0.057
same,NP40-soluble protein abundance,concentration: 6mM,0.989 ± 0.055
same,NP40-soluble protein abundance,concentration: 8mM,0.982 ± 0.061
same,NP40-soluble protein abundance,concentration: 10mM,0.979 ± 0.07
UniProt Q9UJK0,NP40-soluble protein abundance,concentration: 1mM,0.954 ± 0.053
same,NP40-soluble protein abundance,concentration: 2mM,0.9064 ± 0.0012
same,NP40-soluble protein abundance,concentration: 4mM,0.949 ± 0.029
same,NP40-soluble protein abundance,concentration: 6mM,0.895 ± 0.015
same,NP40-soluble protein abundance,concentration: 8mM,0.962 ± 0.11
same,NP40-soluble protein abundance,concentration: 10mM,0.93 ± 0.014
UniProt Q9UHA4,NP40-soluble protein abundance,concentration: 1mM,1.02 ± 0.095
same,NP40-soluble protein abundance,concentration: 2mM,0.985 ± 0.097
same,NP40-soluble protein abundance,concentration: 4mM,1.02 ± 0.084
same,NP40-soluble protein abundance,concentration: 6mM,0.954 ± 0.09
same,NP40-soluble protein abundance,concentration: 8mM,0.985 ± 0.11
same,NP40-soluble protein abundance,concentration: 10mM,0.916 ± 0.079
UniProt Q9UBS8 and related entries,NP40-soluble protein abundance,concentration: 1mM,1.03 ± 0.03
same,NP40-soluble protein abundance,concentration: 2mM,0.982 ± 0.059
same,NP40-soluble protein abundance,concentration: 4mM,0.998 ± 0.051
same,NP40-soluble protein abundance,concentration: 6mM,0.998 ± 0.044
same,NP40-soluble protein abundance,concentration: 8mM,0.991 ± 0.044
same,NP40-soluble protein abundance,concentration: 10mM,0.995 ± 0.026
PACSIN3 (UniProt Q9UKS6),NP40-soluble protein abundance,concentration: 1mM,1.02 ± 0.029
same,NP40-soluble protein abundance,concentration: 2mM,1.01 ± 0.034
same,NP40-soluble protein abundance,concentration: 4mM,1.05 ± 0.033
same,NP40-soluble protein abundance,concentration: 6mM,1.01 ± 0.014
same,NP40-soluble protein abundance,concentration: 8mM,1.05 ± 0.031
same,NP40-soluble protein abundance,concentration: 10mM,1.06 ± 0.011
UniProt Q9UH99,NP40-soluble protein abundance,concentration: 1mM,1.18 ± 0.023
same,NP40-soluble protein abundance,concentration: 2mM,1.163 ± 0.0095
same,NP40-soluble protein abundance,concentration: 4mM,1.151 ± 0.0031
same,NP40-soluble protein abundance,concentration: 6mM,1.17 ± 0.013
same,NP40-soluble protein abundance,concentration: 8mM,1.16 ± 0.028
same,NP40-soluble protein abundance,concentration: 10mM,1.173 ± 0.011
SLC5A6 (UniProt Q9Y289),NP40-soluble protein abundance,concentration: 1mM,0.962 ± 0.025
same,NP40-soluble protein abundance,concentration: 2mM,0.944 ± 0.084
same,NP40-soluble protein abundance,concentration: 4mM,0.956 ± 0.021
same,NP40-soluble protein abundance,concentration: 6mM,0.9682 ± 0.0024
same,NP40-soluble protein abundance,concentration: 8mM,0.836 ± 0.035
same,NP40-soluble protein abundance,concentration: 10mM,0.931 ± 0.056
GINS2 (UniProt Q9Y248),NP40-soluble protein abundance,concentration: 1mM,0.98 ± 0.069
same,NP40-soluble protein abundance,concentration: 2mM,0.979 ± 0.035
same,NP40-soluble protein abundance,concentration: 4mM,0.964 ± 0.041
same,NP40-soluble protein abundance,concentration: 6mM,0.965 ± 0.037
same,NP40-soluble protein abundance,concentration: 8mM,1.01 ± 0.018
same,NP40-soluble protein abundance,concentration: 10mM,0.942 ± 0.09
ANKRD50 (UniProt Q9ULJ7),NP40-soluble protein abundance,concentration: 1mM,0.994 ± 0.12
same,NP40-soluble protein abundance,concentration: 2mM,1.02 ± 0.028
same,NP40-soluble protein abundance,concentration: 4mM,0.963 ± 0.034
same,NP40-soluble protein abundance,concentration: 6mM,0.952 ± 0.059
same,NP40-soluble protein abundance,concentration: 8mM,0.943 ± 0.055
same,NP40-soluble protein abundance,concentration: 10mM,0.956 ± 0.051
DHCR7 (UniProt Q9UBM7),NP40-soluble protein abundance,concentration: 1mM,0.967 ± 0.078
same,NP40-soluble protein abundance,concentration: 2mM,0.957 ± 0.061
same,NP40-soluble protein abundance,concentration: 4mM,0.932 ± 0.085
same,NP40-soluble protein abundance,concentration: 6mM,0.855 ± 0.11
same,NP40-soluble protein abundance,concentration: 8mM,0.961 ± 0.031
same,NP40-soluble protein abundance,concentration: 10mM,0.978 ± 0.025

# Some of the entries so far, bar-delimited.
target | measurement | setting | value
ABT1 (UniProt Q9ULW3) | NP40-soluble protein abundance | concentration: 2mM | 1.01 ± 0.095
same | NP40-soluble protein abundance | concentration: 4mM | 1.02 ± 0.057
same | NP40-soluble protein abundance | concentration: 6mM | 0.989 ± 0.055
same | NP40-soluble protein abundance | concentration: 8mM | 0.982 ± 0.061
